Source: the supplement of paper PMC12067093, “Discovery and optimisation of a covalent ligand for TRIM25 and its application to targeted protein ubiquitination” (Chemical Science, 2025)
Some of the results follow.

By UniProt entry, the sequences of proteins in these tests, tags left out. Where a name states a change or a piece, a line headed by the entry shows the natural chain unless it says otherwise.
UniProt Q9BZL6: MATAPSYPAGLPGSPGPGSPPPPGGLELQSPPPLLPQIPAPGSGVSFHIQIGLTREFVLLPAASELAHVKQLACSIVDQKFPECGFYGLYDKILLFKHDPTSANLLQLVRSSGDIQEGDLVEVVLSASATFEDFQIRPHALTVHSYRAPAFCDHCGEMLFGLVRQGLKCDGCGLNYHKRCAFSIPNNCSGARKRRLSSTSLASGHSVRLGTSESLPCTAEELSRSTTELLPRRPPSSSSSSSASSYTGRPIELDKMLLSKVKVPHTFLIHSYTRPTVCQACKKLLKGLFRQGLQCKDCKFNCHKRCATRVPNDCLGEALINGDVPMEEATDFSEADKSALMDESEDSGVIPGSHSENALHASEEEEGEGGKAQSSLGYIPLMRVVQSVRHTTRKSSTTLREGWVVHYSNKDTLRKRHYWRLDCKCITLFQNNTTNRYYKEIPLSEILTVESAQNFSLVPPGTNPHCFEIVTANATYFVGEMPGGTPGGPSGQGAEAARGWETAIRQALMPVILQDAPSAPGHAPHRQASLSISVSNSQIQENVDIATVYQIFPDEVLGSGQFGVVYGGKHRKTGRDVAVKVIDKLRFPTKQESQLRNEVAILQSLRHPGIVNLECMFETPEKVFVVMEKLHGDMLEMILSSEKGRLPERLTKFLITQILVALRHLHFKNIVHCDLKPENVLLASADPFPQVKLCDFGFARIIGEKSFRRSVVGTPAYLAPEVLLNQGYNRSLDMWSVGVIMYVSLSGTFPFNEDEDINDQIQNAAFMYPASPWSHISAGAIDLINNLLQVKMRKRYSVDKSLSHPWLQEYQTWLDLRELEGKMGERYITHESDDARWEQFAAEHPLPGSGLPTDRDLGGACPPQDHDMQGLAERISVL
UniProt O14744, whole entry, looked up: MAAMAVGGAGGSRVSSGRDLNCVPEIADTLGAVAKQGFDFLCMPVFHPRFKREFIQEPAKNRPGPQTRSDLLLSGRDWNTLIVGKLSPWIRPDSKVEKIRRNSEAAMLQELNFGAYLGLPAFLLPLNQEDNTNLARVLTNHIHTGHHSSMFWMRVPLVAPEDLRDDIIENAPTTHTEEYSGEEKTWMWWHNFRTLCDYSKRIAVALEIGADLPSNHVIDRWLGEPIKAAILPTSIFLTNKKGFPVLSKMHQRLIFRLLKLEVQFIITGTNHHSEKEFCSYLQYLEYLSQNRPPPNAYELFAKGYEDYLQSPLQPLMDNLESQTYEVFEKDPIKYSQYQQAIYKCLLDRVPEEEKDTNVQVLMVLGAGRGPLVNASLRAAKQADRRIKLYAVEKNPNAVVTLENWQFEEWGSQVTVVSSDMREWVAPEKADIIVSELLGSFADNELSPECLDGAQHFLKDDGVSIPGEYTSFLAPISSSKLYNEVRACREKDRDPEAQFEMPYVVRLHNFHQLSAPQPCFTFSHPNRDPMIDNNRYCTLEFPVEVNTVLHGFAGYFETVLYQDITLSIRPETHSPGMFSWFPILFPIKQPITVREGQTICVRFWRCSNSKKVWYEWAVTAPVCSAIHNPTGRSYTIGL
UniProt P78527, whole entry, looked up: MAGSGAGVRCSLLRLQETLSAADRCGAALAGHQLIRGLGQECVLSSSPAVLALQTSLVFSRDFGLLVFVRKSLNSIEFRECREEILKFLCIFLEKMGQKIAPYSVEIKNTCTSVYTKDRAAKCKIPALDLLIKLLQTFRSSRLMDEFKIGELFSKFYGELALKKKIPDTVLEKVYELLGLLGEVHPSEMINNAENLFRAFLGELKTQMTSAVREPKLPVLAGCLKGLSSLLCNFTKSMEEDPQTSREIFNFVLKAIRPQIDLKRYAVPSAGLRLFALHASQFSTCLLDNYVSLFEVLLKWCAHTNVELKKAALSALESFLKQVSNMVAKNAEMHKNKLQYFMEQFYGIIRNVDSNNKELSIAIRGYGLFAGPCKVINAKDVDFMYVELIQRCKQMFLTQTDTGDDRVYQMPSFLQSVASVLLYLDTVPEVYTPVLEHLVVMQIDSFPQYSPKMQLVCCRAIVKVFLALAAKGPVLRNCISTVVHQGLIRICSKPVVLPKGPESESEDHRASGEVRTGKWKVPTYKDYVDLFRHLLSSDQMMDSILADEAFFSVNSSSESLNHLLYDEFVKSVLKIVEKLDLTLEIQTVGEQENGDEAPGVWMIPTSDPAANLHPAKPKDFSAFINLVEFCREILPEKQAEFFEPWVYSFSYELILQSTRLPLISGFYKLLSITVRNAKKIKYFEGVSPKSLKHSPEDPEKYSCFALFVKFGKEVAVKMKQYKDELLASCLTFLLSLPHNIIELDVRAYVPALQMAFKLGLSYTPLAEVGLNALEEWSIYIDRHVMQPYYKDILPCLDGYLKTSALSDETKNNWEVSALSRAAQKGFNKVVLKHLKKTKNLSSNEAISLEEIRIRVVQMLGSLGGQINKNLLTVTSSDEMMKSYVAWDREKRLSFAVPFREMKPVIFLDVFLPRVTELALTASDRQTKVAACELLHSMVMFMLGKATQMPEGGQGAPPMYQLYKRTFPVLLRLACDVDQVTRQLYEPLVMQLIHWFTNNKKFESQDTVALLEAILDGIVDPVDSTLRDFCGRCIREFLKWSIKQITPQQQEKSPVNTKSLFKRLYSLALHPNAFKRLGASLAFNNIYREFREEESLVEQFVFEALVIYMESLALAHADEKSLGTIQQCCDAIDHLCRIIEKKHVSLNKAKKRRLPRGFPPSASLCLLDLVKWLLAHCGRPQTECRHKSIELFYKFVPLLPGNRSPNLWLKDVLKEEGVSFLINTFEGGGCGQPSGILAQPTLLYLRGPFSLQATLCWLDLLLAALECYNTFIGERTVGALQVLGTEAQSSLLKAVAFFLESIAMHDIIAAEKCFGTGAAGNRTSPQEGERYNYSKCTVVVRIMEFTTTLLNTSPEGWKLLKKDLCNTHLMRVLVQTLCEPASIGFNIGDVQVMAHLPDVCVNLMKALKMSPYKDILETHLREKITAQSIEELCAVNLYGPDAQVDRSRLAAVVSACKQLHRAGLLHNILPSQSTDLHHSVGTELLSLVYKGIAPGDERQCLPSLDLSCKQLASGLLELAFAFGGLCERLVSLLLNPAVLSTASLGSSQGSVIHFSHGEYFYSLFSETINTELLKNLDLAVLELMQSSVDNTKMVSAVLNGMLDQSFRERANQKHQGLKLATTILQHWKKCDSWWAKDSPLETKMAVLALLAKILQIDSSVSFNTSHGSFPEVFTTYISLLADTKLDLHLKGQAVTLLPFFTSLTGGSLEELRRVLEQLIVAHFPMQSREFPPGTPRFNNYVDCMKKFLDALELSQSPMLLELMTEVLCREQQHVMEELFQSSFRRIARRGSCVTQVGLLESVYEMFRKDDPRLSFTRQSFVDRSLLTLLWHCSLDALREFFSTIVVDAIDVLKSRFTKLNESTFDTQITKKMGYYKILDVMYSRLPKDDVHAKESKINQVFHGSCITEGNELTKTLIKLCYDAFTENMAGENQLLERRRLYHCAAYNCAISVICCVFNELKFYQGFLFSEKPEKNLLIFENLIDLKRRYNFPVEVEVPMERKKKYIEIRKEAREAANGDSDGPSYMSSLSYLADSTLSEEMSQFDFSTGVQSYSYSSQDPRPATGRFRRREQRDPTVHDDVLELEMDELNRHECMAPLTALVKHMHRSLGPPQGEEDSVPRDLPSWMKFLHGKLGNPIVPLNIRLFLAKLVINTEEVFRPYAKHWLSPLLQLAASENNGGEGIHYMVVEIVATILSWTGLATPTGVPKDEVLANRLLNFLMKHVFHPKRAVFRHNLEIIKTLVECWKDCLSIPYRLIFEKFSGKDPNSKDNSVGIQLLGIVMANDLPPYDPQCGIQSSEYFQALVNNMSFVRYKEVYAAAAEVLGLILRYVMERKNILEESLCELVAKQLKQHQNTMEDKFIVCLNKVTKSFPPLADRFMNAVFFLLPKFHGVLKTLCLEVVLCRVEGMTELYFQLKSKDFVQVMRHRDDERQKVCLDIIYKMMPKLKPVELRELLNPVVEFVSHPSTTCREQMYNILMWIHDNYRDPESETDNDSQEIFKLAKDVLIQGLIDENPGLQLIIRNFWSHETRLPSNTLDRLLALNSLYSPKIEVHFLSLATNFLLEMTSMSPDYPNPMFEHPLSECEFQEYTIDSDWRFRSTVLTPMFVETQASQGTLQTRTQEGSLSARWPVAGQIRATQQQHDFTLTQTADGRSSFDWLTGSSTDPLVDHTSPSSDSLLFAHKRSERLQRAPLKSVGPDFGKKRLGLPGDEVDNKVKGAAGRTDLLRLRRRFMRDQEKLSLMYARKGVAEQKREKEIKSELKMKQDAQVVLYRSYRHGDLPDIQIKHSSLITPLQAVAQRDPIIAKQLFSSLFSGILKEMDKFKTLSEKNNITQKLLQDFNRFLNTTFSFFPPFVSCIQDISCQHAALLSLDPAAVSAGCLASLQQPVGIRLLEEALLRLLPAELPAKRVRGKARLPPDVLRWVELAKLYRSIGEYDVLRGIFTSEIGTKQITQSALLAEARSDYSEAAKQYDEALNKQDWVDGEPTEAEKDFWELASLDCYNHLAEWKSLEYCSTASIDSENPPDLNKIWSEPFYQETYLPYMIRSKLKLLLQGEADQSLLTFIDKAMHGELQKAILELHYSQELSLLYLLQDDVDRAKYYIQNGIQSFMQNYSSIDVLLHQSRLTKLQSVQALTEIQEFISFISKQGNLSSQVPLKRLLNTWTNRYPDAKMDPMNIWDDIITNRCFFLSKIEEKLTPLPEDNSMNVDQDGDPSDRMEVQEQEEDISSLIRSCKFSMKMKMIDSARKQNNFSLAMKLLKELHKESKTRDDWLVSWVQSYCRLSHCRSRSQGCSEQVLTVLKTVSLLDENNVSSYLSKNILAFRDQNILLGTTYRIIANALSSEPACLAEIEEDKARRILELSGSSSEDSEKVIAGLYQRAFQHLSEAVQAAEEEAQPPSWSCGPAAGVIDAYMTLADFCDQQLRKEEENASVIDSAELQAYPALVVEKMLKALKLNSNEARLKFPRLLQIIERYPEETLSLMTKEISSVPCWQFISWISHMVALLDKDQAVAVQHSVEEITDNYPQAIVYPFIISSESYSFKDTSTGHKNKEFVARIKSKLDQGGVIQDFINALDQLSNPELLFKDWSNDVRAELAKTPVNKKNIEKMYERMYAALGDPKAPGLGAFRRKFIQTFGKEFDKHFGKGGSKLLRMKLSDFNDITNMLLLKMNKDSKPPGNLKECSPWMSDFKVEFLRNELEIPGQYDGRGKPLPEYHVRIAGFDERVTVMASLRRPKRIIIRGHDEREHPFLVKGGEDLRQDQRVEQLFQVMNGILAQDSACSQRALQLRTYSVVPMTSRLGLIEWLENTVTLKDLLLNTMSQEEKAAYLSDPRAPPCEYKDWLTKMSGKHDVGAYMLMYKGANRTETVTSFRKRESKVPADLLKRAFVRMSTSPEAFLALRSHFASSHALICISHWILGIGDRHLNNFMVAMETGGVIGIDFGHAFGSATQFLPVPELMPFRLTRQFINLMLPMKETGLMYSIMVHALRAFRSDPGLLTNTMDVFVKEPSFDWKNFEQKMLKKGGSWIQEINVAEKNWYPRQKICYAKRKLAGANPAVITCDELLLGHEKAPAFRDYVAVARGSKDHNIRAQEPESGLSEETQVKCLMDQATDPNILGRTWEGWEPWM
UniProt O43172: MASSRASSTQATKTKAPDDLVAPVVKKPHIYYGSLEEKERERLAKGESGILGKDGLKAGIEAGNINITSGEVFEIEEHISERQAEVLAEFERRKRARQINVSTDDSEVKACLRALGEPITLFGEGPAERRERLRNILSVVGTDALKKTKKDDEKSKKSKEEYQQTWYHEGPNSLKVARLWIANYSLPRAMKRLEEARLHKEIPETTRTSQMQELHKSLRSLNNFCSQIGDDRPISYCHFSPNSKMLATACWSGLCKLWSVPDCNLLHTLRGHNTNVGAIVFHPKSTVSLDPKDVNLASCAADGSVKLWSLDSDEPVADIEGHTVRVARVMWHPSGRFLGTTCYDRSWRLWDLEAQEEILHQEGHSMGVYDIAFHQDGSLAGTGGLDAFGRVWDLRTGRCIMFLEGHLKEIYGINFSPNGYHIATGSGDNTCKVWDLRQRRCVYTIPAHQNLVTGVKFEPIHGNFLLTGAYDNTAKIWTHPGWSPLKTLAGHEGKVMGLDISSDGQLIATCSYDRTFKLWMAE
UniProt Q99873, whole entry, looked up: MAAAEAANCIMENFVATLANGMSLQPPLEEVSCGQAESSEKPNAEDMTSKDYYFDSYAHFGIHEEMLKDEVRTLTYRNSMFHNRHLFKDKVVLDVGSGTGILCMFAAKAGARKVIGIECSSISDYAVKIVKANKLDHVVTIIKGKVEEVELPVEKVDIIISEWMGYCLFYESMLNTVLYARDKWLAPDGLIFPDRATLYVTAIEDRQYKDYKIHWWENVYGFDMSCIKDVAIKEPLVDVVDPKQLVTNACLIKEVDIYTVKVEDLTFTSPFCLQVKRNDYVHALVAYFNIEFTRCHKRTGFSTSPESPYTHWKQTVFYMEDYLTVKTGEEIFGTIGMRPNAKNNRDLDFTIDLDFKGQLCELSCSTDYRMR

Compound: Cc1cc(ccc1-c1ccccc1)C(=O)N1CCCN(CC1)C(=O)CCl [compound 10]
Experiment: probe-labelled cysteine peptide fold change vs DMSO (competition) (log2 fold change); higher = less target engagement (more negative = stronger competition)
Details: THP-1, incubation time: 4 h
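Further: competitive profiling in live THP-1 cells: cysteine peptides tagged with an iodoacetamide desthiobiotin (IA-DTB) probe, intensity after compound treatment relative to DMSO-treated cells.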

Target | probe-labelled cysteine peptide fold change (10 µM) | probe-labelled cysteine peptide fold change (50 µM)
PRKCB_P05771_586_LGCGPEGER (UniProt P05771) | -0.194 | 0.102
PROSER1_Q86XN7_139_APHAMISSCGTIPGNPYPK (UniProt Q86XN7) | -0.221 | -0.552
PRKD3_O94806_204_IPNNCSGVR (UniProt O94806) | 0.183 | 0.308
PRKD2_Q9BZL6_278_VPHTFLIHSYTRPTVCQACK (UniProt Q9BZL6) | -0.537 | -0.15
PRMT5_O14744_344_CLLDRVPEEEK (UniProt O14744) | -0.0136 | -0.015
PRKDC_P78527_1364_DLCNTHLMR (UniProt P78527) | -0.0526 | -0.0393
PRKDC_P78527_1499+1507_QCLPSLDLSCK (UniProt P78527) | 0.0692 | -0.469
PRPF39_Q86UA1_450_TFEECVLGLAMVR (UniProt Q86UA1) | 0.0739 | 0.0216
PRMT5_O14744_622_KVWYEWAVTAPVCSAIHNPTGR (UniProt O14744) | -0.0156 | 0.0576
PRMT3_O60678_363_GGSVYPDICTISLVAVSDVNK (UniProt O60678) | 0.4 | 0.31
PRKAA1_Q13131_238_ICDGIFYTPQYLNPSVISLLK (UniProt Q13131) | 0.08 | 0.158
PRKCSH_P14314_56_GVSLTNHHFYDESKPFTCLDGSATIPFDQVNDDYCDCK (UniProt P14314) | -0.131 | -0.981
PRRC2C_Q9Y520_177_ETNDDNYGPGPSLRPPNVACWR (UniProt Q9Y520) | -0.177 | -0.309
PRPF4_O43172_263_LWSVPDCNLLHTLR (UniProt O43172) | 0.0669 | 0.105
PRKCSH_P14314_39_GVSLTNHHFYDESKPFTCLDGSATIPFDQVNDDYCDCK (UniProt P14314) | -0.151 | -1.07
PRPF38B_Q5VTL8_113_TAGQTGMCGGVR (UniProt Q5VTL8) | -0.121 | -0.672
PRKCB_P05771_71_QGFQCQVCCFVVHKR (UniProt P05771) | -0.282 | -0.63
PRKDC_P78527_4061_KLAGANPAVITCDELLLGHEK (UniProt P78527) | -0.0739 | -0.151
PRKDC_P78527_1455_LAAVVSACK (UniProt P78527) | -0.175 | 0.0415

Target | probe-labelled cysteine peptide fold change (10 µM) | probe-labelled cysteine peptide fold change (50 µM)
PRPS1_P60891_41_KFSNQETCVEIGESVR (UniProt P60891) | 0.0818 | 0.329
PRMT1_Q99873_119_KVIGIECSSISDYAVK (UniProt Q99873) | 0.0774 | -0.48
PRKD2_Q9BZL6_180+188_CAFSIPNNCSGAR (UniProt Q9BZL6) | -0.223 | -0.37
PRKDC_P78527_1791_GSCVTQVGLLESVYEMFR (UniProt P78527) | -0.0217 | 0.201
PRMT1_Q99873_103_VVLDVGSGTGILCMFAAK (UniProt Q99873) | 0.0776 | 0.00186
PRKAA1_Q13131_141_LFQQILSGVDYCHR (UniProt Q13131) | 0.125 | 0.266
PRKD2_Q9BZL6_861_DLGGACPPQDHDMQGLAER (UniProt Q9BZL6) | -0.804 | -0.14
PRKDC_P78527_3293_SQGCSEQVLTVLK (UniProt P78527) | 0.0734 | -0.119
PRPF19_Q9UMS4_16_SLICSISNEVPEHPCVSPVSNHVYER (UniProt Q9UMS4) | 0.241 | 0.301
PRPF4_O43172_441_RCVYTIPAHQNLVTGVK (UniProt O43172) | -0.0522 | -0.2
PRKDC_P78527_4061_LAGANPAVITCDELLLGHEK (UniProt P78527) | -0.259 | 0.246
PRR14L_Q5THK1_650_VESECVLNQQVSLNSQEHANLPTDSLLHLNK (UniProt Q5THK1) | -0.519 | -0.522
PRMT5_O14744_518_LHNFHQLSAPQPCFTFSHPNRDPMIDNNR (UniProt O14744) | 0.0344 | 0.137
PSD4_Q8NDX1_988_LHCPSDALDLWEEQLGR (UniProt Q8NDX1) | 0.0622 | 0.064
PRKCSH_P14314_77_DGSDEPGTAACPNGSFHCTNTGYK (UniProt P14314) | 0.189 | 0.422
PRG2_P13727_201_GGHCVALCTR (UniProt P13727) | -0.0284 | 0.216
PRKDC_P78527_232_GLSSLLCNFTK (UniProt P78527) | -0.254 | 0.0468
PRKAR1A_P10644_39_DSIVQLCTARPER (UniProt P10644) | -0.205 | 0.175
